This series is described as follows: general procedure: hybrid (solid and solution phase) peptide synthesis; 2-chlorotrityl chloride resin (1.46 mmol/g); DIC/OxymaPure (SPPS); PyBOP/DIEA (fragment coupling in solution). The following applies: whole synthesis.

Turning to liraglutide, the “crude HPLC purity” value is, setting by setting: (run 1) 64.5%; (run 2) 65.5%; (run 3) 67.5%.

The record behind these values is patent publication US20230047729 (published 2023).
